Experimental data: patent US20250000769A1, “SUNSCREEN OR DAILY CARE COMPOSITION COMPRISING BIS-ETHYLHEXYLOXYPHENOL METHOXYPHENYL TRIAZINE AND INORGANIC UV FILTERS” (BASF SE, priority 2021, published 2025)
The name of at least one read-out is uncertain.

Experiment: Photostability (recovery of UV filters after irradiation, HPLC)
Type: physicochemical
Conditions: 50 MED
[1] = 2.5% BEMT (Inv. 2) vs. 4.5% B3 (Comp. 4)
[2] = 4% BEMT (Inv. 1) vs. 4% B3 (Comp. 1)
[3] = 5% BEMT (Inv. 3) vs. 5% B3 (Comp. 7)

SMILES | recovery (%) of the organic UV filters after irradiation [1] [%] | recovery (%) of the organic UV filters after irradiation [2] [%] | recovery (%) of the organic UV filters after irradiation [3] [%]
CCCCC(CC)COc1ccc(-c2nc(-c3ccc(OC)cc3)nc(-c3ccc(OCC(CC)CCCC)cc3O)n2)c(O)c1 (stereo not drawn) [BEMT, bis-ethylhexyloxyphenol methoxyphenyl triazine] | 100 | 98 | 107
COc1ccc(C(=O)c2ccccc2)c(O)c1 [Formulation B3, 2-hydroxy-4-methoxybenzophenone] | 71 | 84 | 75
